± gives the standard deviation. This is a selection; strong and weak results do not stand in their true shares. Many of these values have a large error. Some of the results follow.
What was measured:
[1] = test system: MILI (PIWIL2) piRISC loaded with L1MC piRNA (26 nt); test: pre-steady-state target cleavage rate (min^-1); higher = faster piRNA-guided slicing of the target; details: guide: L1MC piRNA 5'p-UAACUAAAUACUAUGCAAGCUGUAGG; auxiliary factor: none (no GTSF1)
Method in brief: (§1)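 In this Cleave-'n-Seq assay, uncleaved targets were sequenced and normalised to depth and to weakly complementary targets. They came from a transcribed, DNA-blocked target RNA library […] mixed with 1 nM active affinity-purified piRISC carrying one synthetic guide, with or without 500 nM GTSF1 partner protein, in HEPES–potassium acetate buffer at 33 °C for 0–8 or 0–960 min. After three trials were pooled and k3 was capped at 0.0001 min^-1, the pre-steady-state cleavage rate was obtained from a burst-and-steady-state fit.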

[2] = test system: MIWI (PIWIL1) piRISC loaded with L1MC piRNA (30 nt); test: as above; details: guide: L1MC piRNA 5'p-UAACUAAAUACUAUGCAAGCUGUAGGUCCU
Method in brief: as §1

[3] = test system: EfPiwi piRISC loaded with L1MC piRNA (26 nt); test: pre-steady-state target cleavage rate (min^-1); guide: L1MC piRNA 5'p-UAACUAAAUACUAUGCAAGCUGUAGG; MIWI and MILI are mouse PIWI proteins and EfPiwi is from a freshwater sponge; tags in brackets are library labels; higher = faster piRNA-guided slicing of the target
Method in brief: as §1

[4] = auxiliary factor: 500 nM mouse GTSF1
[5] = auxiliary factor: none (no GTSF1)
[6] = auxiliary factor: 500 nM Ephydatia muelleri Gtsf1
[7] = auxiliary factor: none (no Gtsf1)

Sequence | pre-steady-state target cleavage rate [1] | pre-steady-state target cleavage rate [2, 4] | pre-steady-state target cleavage rate [2, 5] | pre-steady-state target cleavage rate [3, 6] | pre-steady-state target cleavage rate [3, 7]
UCCUGGAUGUCGUUCCAUAGUAUUUAGUUA | 0.000371 ± 0.017 | 0.00174 ± 0.0066 | 0.000573 ± 0.012 | 0.000363 ± 0.0079 | 0.000189 ± 0.029
UCCUGCUACAGCUUCCAUUGUAUUUAGUUA |  |  | 0.00261 ± 0.0027 | 0.00266 ± 0.0018 | 0.000212 ± 0.031
UCCUCCUACACGAUGCAUAGUAUUUAGUAA |  |  | 0.000974 ± 0.0039 | 0.00453 ± 0.0027 | 0.000575 ± 0.011
UCCUGGAUCAGCUAGCAUAGUAUUUUCAAA |  |  | 0.00143 ± 0.0053 | 0.00203 ± 0.0046 | 0.000201 ± 0.026
UCCUGGAUCAGGAUGCAUAGUAUUUAGUAA |  |  | 0.00261 ± 0.0029 | 0.00188 ± 0.003 | 0.000109 ± 0.056
UCCUGGAUGUGGUUGCAUAGUAUUUAGAAA | 0.00112 ± 0.0096 | 0.00192 ± 0.0091 | 0.000474 ± 0.012 | 0.00115 ± 0.0082 | 0.00155 ± 0.0085
UCCUCCUACAGCUUGGUAAGUAUUUAGUUA |  |  | 0.00114 ± 0.0036 | 0.00379 ± 0.0034 | 0.000918 ± 0.0067
UCCUGGAUGUCGAUGCAUACAUAAAUCAAA [g12:g17:cont:t1A] |  |  | 0.000111 ± 0.033 | 0.000183 ± 0.015 | 0.000373 ± 0.019
UCCUGGAUGUCGAUGCAUAGUAUUUAGUUUA |  |  | 0.00139 ± 0.0063 | 0.00642 ± 0.0029 | 0.00107 ± 0.0084
UCCUGGUACAGCUUCCAUAGUAUUUUCAAA |  |  | 0.000845 ± 0.0078 | 0.00111 ± 0.0043 | 0.00018 ± 0.042
UCCUGGAACAGCUUCCAAAGUAUUUAGUUA |  |  | 0.00175 ± 0.0032 | 0.00262 ± 0.0019 | 0.000486 ± 0.012
UCCUGGAACAGCUUCCAUUGUAUUUAGUUA |  |  | 0.0024 ± 0.0026 | 0.00345 ± 0.0017 | 0.00044 ± 0.018
UCCUGGAUGAGCUUGGUUAGUAUUUAGAAA | 0.00149 ± 0.0052 | 0.000968 ± 0.011 | 0.000906 ± 0.0086 | 0.000696 ± 0.008 | 0.000361 ± 0.019
UCCUGGAUGUCGAAGCAUAGUAUUUAGUCA |  |  | 0.00113 ± 0.0038 | 0.00093 ± 0.0087 | < 0.0001
UCCUCCUACAGCUUGCAUGAGUAUUUAGUUA |  |  | 0.000784 ± 0.0082 | 0.00215 ± 0.0028 | 0.000495 ± 0.012
UCCUGGAUGUCGAAGCAUAGUAUUUAGUUU [g2:g16:cont:t1U] |  |  | 0.00161 ± 0.0038 | 0.00204 ± 0.0033 | < 0.0001
UCCUGGAUGUGCUACGAUAGUAUUUAGAAA |  |  | 0.000805 ± 0.0088 | 0.000306 ± 0.0092 | 0.000414 ± 0.02
UCCUGGAUGUCCUUGCAUUGUAUAUAGUUA |  |  | 0.00109 ± 0.0059 | 0.00093 ± 0.0068 | 0.000142 ± 0.052
UCCUGGAUGUCGAUGCACAGUAUUUAGUUA |  |  | 0.0018 ± 0.0045 | 0.00158 ± 0.0046 | < 0.0001
UCCUGGAUGUCCUAGCAUAGUAUUUAGUUA |  |  | 0.0026 ± 0.0028 | 0.00246 ± 0.0036 | 0.00102 ± 0.0069

Quoted at random: 2 entries already listed
Sequence | pre-steady-state target cleavage rate [1] | pre-steady-state target cleavage rate [2, 4] | pre-steady-state target cleavage rate [2, 5] | pre-steady-state target cleavage rate [3, 6] | pre-steady-state target cleavage rate [3, 7]
UCCUGCUACAGCUUCCAUUGUAUUUAGUUA |  |  | 0.00261 ± 0.0027 | 0.00266 ± 0.0018 | 0.000212 ± 0.031
UCCUCCUACAGCUUGCAUGAGUAUUUAGUUA |  |  | 0.000784 ± 0.0082 | 0.00215 ± 0.0028 | 0.000495 ± 0.012

Next part.

Sequence | pre-steady-state target cleavage rate [1] | pre-steady-state target cleavage rate [2, 4] | pre-steady-state target cleavage rate [2, 5] | pre-steady-state target cleavage rate [3, 6] | pre-steady-state target cleavage rate [3, 7]
UCCUGGAACAGGAAGCAUAGUAUUUAGAAA | 0.000815 ± 0.0057 | 0.00196 ± 0.0046 | 0.000532 ± 0.0064 | 0.000811 ± 0.0047 | 0.00042 ± 0.015
UCCUGGAUGAGCAACCAUAGUAUUUACAAA | 0.000473 ± 0.015 | 0.00156 ± 0.0099 | 0.000713 ± 0.0099 | 0.000152 ± 0.042 | 0.0004 ± 0.018
UCCUGGAUGUGCUAGGAUAGUAUUUAGUUA |  |  | 0.00131 ± 0.0057 | 0.0009 ± 0.005 | 0.000286 ± 0.036
UCCUGGAUGUCGAUGCUUAGUAUUAAGUUA |  |  | 0.000462 ± 0.01 | 0.000575 ± 0.0091 | 0.000136 ± 0.044
UCCUGGAUGUCGUUGCAUAGUACUUAGUUA |  |  | 0.00272 ± 0.0033 | 0.00365 ± 0.0035 | 0.00147 ± 0.0065
UCCUGGUACAGCUUGCAUAGUUUUAGUUA | 0.00243 ± 0.0033 | 0.00279 ± 0.0062 | 0.000551 ± 0.0055 | 0.00131 ± 0.0052 | 0.000356 ± 0.033
UCCUGGAUGUCGAUGCAUAGUACUUUAGUUA |  |  | 0.000645 ± 0.011 | 0.000387 ± 0.014 | 0.000394 ± 0.017
UCCUGGAAGAGCUUGCAUAGUAUUUUCAAA |  |  | 0.00136 ± 0.0046 | 0.00137 ± 0.0022 | 0.000527 ± 0.015
UCCUGCUACAGCUUCGAUAGUAUUUAGUAA |  |  | 0.00162 ± 0.0039 | 0.00315 ± 0.0026 | 0.000628 ± 0.0087
UCCUGGAUGUCGUUGCAUAGUAUUUCAGUUA |  |  | 0.00118 ± 0.0071 | 0.00109 ± 0.0077 | 0.000605 ± 0.015
UCCUGGAUGUCGAAGCAAUGUAUUUAGUUA |  |  | 0.00062 ± 0.0099 | 0.000732 ± 0.0078 | 0.000303 ± 0.019
UCCUGCUACAGCUUGCUAUAGUAUUUAGUUA | 0.0011 ± 0.0063 | 0.0317 ± 0.011 | 0.000316 ± 0.013 | 0.0075 ± 0.002 | 0.00221 ± 0.0054
UCCUGGUACAGCUUCGUUAGUAUUUAGUAA |  |  | 0.00142 ± 0.0052 | 0.000239 ± 0.024 | 0.000353 ± 0.024
UCCUGGUACAGCUUGCCAUAGUAUUUAGUUA |  |  | 0.0026 ± 0.0033 | 0.0045 ± 0.0021 | 0.00103 ± 0.0096
UCCUGGAUGUCCAUGCAUAGUAUUUAGUUA |  |  | 0.00244 ± 0.0028 | 0.00171 ± 0.0034 | 0.00073 ± 0.011
UCCUGGAUGUGCAUGGAUAGUAUUUAGUUA |  |  | 0.00307 ± 0.0034 | 0.00193 ± 0.004 | 0.000928 ± 0.011
UCCUGGAUGUCGUUGCAUACUAUUUAGUUA |  |  | 0.00206 ± 0.0033 | 0.00174 ± 0.0026 | 0.000218 ± 0.03
UCCUGGAUGUCGUUGCAUGGUAUUUAGUUA |  |  | 0.00222 ± 0.0051 | 0.000564 ± 0.0096 | 0.00168 ± 0.0066
UCCUGGAACAGCUUGCAUAGUAUAAUGAAA |  |  | 0.00276 ± 0.0035 | 0.00147 ± 0.0042 | 0.00016 ± 0.028
UCCUGCUACAGGAAGCAUAGUAUUUAGAAA |  |  | 0.000463 ± 0.011 | 0.00209 ± 0.0022 | 0.000271 ± 0.016

Reference: the supplement of paper PMC10338343
